PubChem BioAssay AID1259308 – NCATS, 2017
Test: 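Knock-downs that increase output of a recombinant reporter protein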 (primary screen). Cell system: human HEK293 embryonic kidney cells stably expressing firefly luciferase (HEK-CMV-Luc2-Hygro). Reagent: single siRNA against human genes, 0.8 pmol siRNA per well. Duration: 72 h. Measured: 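Reporter luminescence and viable-cell signal on separate replicate plates, given as percent of non-targeting control and median/MAD z-scores, plus per-cell luciferase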. Reading the numbers: total luciferase, z-score and total luciferase, % of control: higher = more reporter protein produced; luciferase per cell, z-score: higher = more reporter output per viable cell; viable cells, % of control: higher = more viable cells. Hit rule: 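Active when the median/MAD z-score for overall luciferase is greater than 3; a gene was taken forward for validation with new siRNAs if at least two of its three siRNAs passed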. Calls: active = raised luciferase; inactive = no rise.
Here is a random part of about 59,000 reagents tested. About 1,510 of all reagents (2.6%) count as active. 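Calls use total luciferase alone and ignore viability, so some active siRNAs may act by altering cell number.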 Entries without a mark were called inactive. The numbers tell different reagents against one gene apart.

gene symbol	reagent no.	total luciferase, z-score	total luciferase, % of control	luciferase per cell, z-score	viable cells, % of control
CHMP2A	1	0.489	91.6	0.414	91.8
CHMP2A	2	-1.09	60.2	-1.36	96.2
CHMP2A	3	1.43	110	0.909	97.1
AADAT	1	0.991	102	1.56	75.2
AADAT	2	2.53	132	1.48	100
AADAT	3	2.02	122	1.65	88.3
PLPP2	1	-1.45	53.1	-1.96	99.3
PLPP2	2	-3.39	14.6	-5.47	68.6
PLPP2	3	0.0883	83.6	-0.293	101
CNEP1R1	1	-1.81	45.9	-1.82	82.9
CNEP1R1	2	0.0319	82.5	0.862	73.5
CNEP1R1	3	0.439	90.6	0.254	94.7
DPPA5	1	1.48	111	1.33	87.5
DPPA5	2	0.445	90.7	0.472	89.6
DPPA5	3	0.387	89.6	-0.395	111
RPS6KL1	1	0.895	99.7	1.01	85.4
RPS6KL1	2	-0.705	67.9	-0.269	81.4
RPS6KL1	3	-0.0324	81.2	-0.646	108
DEFB110	1	2.48	131	2.34	79.1
DEFB110	2	5.31 (active)	187	3.83	76.3
DEFB110	3	-0.79	66.2	-1.23	102
DEFB110	4	-0.537	71.2	-0.297	86.1
DEFB110	5	-0.822	65.5	-0.353	80.4
DEFB110	6	1.57	113	1.89	77
SLC25A17	1	-1.02	61.7	-0.968	88.9
SLC25A17	2	-0.819	65.6	-1.46	108
SLC25A17	3	1.22	106	1.44	81.1
TNK2	1	-1.97	42.7	-0.0969	48.9
TNK2	2	0.246	86.8	-0.245	103
TNK2	3	-1.29	56.3	-1.34	89.5
ERLIN2	1	-2.48	32.5	-2.19	64.6
ERLIN2	2	2.2	126	1.34	98.5
ERLIN2	3	0.761	97	0.315	99.8
THADA	1	0.218	86.2	-0.627	114
THADA	2	-0.361	74.7	-0.331	91.1
THADA	3	-0.742	67.1	-0.843	93.7
KRTAP21-2	1	-0.452	72.9	0.203	77.2
KRTAP21-2	2	-1.66	48.9	-1.59	83.1
KRTAP21-2	3	-0.656	68.8	-0.583	89.7
